Common to all, as to assay: co-IP; endogenous proteins in whole-cell extracts of HCT116 cells (basal, or transduced with sgCtrl or sgACTL6A; KLF4 IP also in LS174T and LoVo); antibodies against SMARCB1, SMARCC1, INO80 or KLF4 (5-10 ug) on Dynabeads overnight at 4 C; lysis and wash buffer 50 mM Tris-HCl pH 7.5, 150 mM NaCl, 1% NP-40, 0.1% Na-deoxycholate; Western blotting
A general note: A western blot detects proteins with antibodies after separation by electrophoresis.

The chains behind the UniProt entries cited, without tags or fusion partners.
UniProt O43474: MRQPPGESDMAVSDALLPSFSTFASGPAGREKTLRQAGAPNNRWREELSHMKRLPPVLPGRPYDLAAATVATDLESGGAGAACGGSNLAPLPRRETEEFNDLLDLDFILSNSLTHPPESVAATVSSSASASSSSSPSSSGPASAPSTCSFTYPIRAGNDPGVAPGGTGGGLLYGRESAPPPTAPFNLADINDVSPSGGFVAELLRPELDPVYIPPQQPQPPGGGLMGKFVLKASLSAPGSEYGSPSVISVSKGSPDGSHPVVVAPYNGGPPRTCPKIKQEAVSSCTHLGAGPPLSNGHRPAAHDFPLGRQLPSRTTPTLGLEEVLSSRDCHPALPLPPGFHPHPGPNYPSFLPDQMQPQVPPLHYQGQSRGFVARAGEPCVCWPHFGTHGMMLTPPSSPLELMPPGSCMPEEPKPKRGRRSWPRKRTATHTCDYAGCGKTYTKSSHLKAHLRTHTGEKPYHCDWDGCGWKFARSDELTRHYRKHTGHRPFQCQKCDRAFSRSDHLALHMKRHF
UniProt Q12824: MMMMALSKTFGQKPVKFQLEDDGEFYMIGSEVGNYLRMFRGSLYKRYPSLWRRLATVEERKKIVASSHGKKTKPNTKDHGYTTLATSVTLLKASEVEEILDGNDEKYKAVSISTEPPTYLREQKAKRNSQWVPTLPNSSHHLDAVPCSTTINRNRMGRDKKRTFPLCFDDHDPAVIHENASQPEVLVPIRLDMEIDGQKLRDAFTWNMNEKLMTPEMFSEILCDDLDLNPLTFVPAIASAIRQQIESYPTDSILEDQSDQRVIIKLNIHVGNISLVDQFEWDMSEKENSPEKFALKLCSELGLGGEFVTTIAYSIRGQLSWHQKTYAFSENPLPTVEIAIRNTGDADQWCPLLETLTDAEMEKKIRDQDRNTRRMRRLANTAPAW
UniProt Q92922: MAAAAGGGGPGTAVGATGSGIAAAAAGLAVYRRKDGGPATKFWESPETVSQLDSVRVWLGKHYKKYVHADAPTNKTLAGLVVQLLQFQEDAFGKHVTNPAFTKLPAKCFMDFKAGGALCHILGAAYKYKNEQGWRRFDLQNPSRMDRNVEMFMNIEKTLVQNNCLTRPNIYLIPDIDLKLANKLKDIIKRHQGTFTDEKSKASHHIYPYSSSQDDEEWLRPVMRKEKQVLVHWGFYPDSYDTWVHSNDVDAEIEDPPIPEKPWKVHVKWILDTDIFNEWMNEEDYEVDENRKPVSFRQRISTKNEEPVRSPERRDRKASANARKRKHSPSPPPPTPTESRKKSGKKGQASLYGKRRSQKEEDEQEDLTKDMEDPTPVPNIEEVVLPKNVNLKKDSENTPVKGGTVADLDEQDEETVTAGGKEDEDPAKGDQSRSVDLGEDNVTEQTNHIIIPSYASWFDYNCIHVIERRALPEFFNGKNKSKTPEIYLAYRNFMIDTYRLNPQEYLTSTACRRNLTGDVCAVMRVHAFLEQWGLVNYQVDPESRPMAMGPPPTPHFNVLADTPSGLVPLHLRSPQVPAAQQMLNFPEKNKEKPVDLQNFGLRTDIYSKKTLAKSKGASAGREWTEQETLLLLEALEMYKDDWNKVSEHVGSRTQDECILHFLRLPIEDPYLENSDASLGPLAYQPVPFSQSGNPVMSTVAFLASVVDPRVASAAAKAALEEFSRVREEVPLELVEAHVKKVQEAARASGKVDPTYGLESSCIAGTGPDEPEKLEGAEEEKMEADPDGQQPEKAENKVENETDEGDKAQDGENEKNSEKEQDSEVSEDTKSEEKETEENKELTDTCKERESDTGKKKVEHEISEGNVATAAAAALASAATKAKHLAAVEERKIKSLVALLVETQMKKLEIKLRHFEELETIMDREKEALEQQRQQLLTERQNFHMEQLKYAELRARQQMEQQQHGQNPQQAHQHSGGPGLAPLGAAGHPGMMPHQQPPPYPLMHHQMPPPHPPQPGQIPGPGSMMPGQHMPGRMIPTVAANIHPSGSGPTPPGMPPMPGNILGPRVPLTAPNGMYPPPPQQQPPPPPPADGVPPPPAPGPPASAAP
UniProt Q9ULG1: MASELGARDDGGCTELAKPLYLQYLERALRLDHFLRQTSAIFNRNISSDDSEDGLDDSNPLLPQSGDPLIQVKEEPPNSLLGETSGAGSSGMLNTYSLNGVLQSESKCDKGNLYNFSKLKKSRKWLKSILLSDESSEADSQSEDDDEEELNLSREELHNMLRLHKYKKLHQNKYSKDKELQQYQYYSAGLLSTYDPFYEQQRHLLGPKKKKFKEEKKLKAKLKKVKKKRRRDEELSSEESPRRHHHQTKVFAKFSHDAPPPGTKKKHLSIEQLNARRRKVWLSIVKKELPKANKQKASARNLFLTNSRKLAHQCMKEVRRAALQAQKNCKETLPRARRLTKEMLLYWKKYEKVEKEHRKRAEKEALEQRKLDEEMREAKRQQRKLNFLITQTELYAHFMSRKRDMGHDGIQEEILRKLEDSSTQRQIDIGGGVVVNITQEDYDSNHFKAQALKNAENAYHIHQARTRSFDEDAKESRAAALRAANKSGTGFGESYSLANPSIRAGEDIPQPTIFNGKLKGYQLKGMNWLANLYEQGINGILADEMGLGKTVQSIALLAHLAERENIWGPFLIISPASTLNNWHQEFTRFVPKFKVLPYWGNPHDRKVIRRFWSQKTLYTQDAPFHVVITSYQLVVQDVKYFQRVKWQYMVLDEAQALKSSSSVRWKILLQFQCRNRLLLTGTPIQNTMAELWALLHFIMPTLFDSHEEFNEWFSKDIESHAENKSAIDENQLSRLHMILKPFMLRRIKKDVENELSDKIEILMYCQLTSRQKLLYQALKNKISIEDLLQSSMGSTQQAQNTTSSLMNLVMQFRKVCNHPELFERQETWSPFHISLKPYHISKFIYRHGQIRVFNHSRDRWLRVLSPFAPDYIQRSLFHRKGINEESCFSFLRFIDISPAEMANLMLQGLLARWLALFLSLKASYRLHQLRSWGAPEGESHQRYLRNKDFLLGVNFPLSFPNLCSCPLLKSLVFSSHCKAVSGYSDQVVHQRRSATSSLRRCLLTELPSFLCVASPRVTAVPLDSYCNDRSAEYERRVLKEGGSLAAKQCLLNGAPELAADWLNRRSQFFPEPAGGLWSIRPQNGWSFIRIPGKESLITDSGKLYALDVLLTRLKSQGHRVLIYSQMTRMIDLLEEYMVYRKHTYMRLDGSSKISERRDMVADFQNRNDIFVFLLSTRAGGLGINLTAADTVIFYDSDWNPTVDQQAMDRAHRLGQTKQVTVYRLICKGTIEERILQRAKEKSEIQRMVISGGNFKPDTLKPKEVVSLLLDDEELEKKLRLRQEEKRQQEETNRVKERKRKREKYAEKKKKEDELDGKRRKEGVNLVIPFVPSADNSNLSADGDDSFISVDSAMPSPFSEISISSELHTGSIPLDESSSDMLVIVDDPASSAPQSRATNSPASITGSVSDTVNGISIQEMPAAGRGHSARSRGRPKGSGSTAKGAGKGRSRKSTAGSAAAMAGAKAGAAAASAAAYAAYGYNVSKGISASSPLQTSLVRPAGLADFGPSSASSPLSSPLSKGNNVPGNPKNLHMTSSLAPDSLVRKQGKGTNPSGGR
UniProt O96019: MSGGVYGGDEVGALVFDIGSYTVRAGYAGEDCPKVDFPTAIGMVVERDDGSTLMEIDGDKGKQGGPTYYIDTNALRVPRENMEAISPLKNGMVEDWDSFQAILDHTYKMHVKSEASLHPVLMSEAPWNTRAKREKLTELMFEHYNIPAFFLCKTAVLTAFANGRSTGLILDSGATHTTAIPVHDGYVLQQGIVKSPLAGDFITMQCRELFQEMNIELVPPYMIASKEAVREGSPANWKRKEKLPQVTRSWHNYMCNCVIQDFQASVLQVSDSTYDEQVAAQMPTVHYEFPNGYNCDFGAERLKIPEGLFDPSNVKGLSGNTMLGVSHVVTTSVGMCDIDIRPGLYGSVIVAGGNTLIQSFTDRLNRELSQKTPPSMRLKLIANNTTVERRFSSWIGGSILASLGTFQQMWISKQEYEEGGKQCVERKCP
UniProt P51532: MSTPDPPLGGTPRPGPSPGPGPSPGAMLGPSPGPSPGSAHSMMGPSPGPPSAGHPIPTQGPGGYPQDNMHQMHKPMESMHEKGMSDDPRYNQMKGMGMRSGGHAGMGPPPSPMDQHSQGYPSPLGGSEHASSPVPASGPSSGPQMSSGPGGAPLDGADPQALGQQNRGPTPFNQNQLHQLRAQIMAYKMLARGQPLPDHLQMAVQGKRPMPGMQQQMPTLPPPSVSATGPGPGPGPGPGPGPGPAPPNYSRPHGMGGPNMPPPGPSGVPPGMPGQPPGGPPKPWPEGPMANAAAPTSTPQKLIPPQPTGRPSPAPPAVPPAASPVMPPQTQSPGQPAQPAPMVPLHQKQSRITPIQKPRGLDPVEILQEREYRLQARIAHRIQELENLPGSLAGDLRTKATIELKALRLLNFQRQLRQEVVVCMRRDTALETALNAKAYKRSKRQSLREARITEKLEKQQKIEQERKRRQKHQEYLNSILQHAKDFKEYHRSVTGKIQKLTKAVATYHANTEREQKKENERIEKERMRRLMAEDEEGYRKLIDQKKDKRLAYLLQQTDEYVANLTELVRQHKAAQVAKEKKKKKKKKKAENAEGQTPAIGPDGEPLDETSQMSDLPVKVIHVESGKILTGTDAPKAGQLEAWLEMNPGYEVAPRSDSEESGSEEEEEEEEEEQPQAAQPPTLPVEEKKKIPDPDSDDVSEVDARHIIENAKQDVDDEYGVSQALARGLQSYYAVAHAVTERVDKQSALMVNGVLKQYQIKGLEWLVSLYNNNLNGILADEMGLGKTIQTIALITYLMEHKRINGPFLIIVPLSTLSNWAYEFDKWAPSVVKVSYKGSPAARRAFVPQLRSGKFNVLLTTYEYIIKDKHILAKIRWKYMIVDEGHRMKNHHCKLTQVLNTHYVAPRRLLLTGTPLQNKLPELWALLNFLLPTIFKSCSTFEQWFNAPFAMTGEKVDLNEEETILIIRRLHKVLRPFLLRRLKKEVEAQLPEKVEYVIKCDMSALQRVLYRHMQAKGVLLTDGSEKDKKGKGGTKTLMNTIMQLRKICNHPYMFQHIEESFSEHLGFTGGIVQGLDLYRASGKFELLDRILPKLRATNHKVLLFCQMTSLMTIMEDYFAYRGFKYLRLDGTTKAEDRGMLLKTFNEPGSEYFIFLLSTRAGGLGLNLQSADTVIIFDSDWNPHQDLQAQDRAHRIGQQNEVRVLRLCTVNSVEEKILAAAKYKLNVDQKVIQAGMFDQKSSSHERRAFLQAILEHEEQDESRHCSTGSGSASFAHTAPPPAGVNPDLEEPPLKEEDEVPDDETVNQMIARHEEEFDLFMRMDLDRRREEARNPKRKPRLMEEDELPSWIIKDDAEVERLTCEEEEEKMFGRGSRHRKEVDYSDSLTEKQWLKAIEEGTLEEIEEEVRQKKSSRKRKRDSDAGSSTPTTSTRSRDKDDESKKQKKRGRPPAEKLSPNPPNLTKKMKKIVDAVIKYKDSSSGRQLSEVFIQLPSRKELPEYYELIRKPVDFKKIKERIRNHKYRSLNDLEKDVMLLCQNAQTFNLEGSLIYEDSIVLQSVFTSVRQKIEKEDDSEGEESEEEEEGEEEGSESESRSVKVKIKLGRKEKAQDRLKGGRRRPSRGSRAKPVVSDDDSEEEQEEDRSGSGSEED
UniProt Q15532: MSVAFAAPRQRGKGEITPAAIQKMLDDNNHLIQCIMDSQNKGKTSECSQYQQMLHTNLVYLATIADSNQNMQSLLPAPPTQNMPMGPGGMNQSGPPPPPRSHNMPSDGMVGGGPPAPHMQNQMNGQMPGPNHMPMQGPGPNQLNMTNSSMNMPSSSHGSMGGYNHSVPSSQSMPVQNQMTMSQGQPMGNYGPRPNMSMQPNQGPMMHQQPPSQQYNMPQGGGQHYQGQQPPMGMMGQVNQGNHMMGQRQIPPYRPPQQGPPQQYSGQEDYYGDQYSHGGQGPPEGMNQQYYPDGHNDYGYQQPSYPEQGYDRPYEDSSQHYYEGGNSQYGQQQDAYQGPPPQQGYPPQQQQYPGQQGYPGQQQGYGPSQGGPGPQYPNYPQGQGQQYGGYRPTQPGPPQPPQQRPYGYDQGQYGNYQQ
UniProt P25490: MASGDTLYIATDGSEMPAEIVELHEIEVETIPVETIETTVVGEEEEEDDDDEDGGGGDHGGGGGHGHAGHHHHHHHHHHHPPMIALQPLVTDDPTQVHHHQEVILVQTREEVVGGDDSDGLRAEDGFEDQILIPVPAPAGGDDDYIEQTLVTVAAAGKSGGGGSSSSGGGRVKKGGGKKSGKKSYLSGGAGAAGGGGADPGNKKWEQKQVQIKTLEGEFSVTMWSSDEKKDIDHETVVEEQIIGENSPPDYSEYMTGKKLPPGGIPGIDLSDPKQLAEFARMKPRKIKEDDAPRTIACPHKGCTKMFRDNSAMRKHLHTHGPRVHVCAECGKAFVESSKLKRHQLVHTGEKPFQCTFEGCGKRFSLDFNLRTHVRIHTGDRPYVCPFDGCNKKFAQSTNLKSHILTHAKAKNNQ

For assay [1], the target named is KLF4 (human (endogenous in HCT116, LS174T, LoVo)) (UniProt O43474).
The target of assay [2] is SMARCB1 (human (endogenous in HCT116)) (UniProt Q12824).
In assay [3] the target is SMARCC1 (human (endogenous in HCT116)) (UniProt Q92922).
Assay [4] addresses INO80 (human (endogenous in HCT116)) (UniProt Q9ULG1).

The record followed here is paper PMC12394641.

No constants are given. Whether binding was seen depends on the method and setting. In cells and extracts the contact can be indirect. Some binding calls cover weakened binding; strength is not graded here.

As to ACTL6A (from UniProt O96019 1-429), the binding entry in assay [1], in assay [2] and in assay [3] was “binds” throughout.
For SMARCA4 (from UniProt P51532 1-1647), the binding result in assay [4] was “no binding”; in assay [1] it was “binds”; in assay [2], “binds”.
In the case of SMARCB1 (from UniProt Q12824 1-385), the values for the binding entry in assay [4] and in assay [1] were “no binding” and “binds”, respectively.
On the same counts, the results for SMARCC1 (from UniProt Q92922 1-1105) are “no binding” and “binds”.
In the case of SS18 (from UniProt Q15532 1-418), the binding result in assay [4] is given as “no binding”; in assay [3], “binds”.
On to YY1 (from UniProt P25490 1-414), for which the binding entry in assay [2] and in assay [3] was “no binding” throughout.
